PubChem BioAssay AID1224830 – NIAID, 2016

- Test: 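Genes whose knock-down alters the TNF-alpha reporter response to LPS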 (primary screen)
- Cell system: human THP-1 monocytic leukaemia cells, TNF dual-luciferase reporter clone, PMA-differentiated to macrophage-like cells
- Knock-down reagent: siRNA pool against human genes, 50 nM
- Time to read-out: LPS for 4 h, given about 3 days after siRNA transfection
- Treatment: bacterial LPS (TLR4 ligand), 10 ng/ml
- Detection: 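TNF firefly reporter luminescence divided by renilla, normalised to the plate median, then turned into a robust z-score for each replicate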
- Scale: TNF reporter robust z-score: higher = stronger TNF reporter response to LPS
- Call rule: 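a well is active when its z-score exceeds 2.8 or falls below -1.5; control wells carry no call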
The whole screen tested about 18,000 reagents; this is a random part of them. Over the whole deposit, about 2,900 (16%) got an active call. 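Calls are made per well; low scores hint the gene aids the LPS response, high scores that it dampens it.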 Unmarked entries are inactive. Repeated entries: four replicate wells of each siRNA pool.

gene symbol | TNF reporter robust z-score
DENND5A (GeneID 23258) | 7.31 (active)
DENND5A (GeneID 23258) | 3.5 (active)
DENND5A (GeneID 23258) | 1.35
DENND5A (GeneID 23258) | 1.8
TRIM6-TRIM34 (GeneID 445372) | 1.24
TRIM6-TRIM34 (GeneID 445372) | -1.5
TRIM6-TRIM34 (GeneID 445372) | 0.28
TRIM6-TRIM34 (GeneID 445372) | 2.67
GPR146 (GeneID 115330) | 2.55
GPR146 (GeneID 115330) | 1.44
GPR146 (GeneID 115330) | 2.56
GPR146 (GeneID 115330) | 1.66
VPS26C (GeneID 10311) | -0.15
VPS26C (GeneID 10311) | 0.25
VPS26C (GeneID 10311) | -1.13
VPS26C (GeneID 10311) | -0.79
LAT (GeneID 27040) | -1.41
LAT (GeneID 27040) | -0.88
LAT (GeneID 27040) | -1.44
LAT (GeneID 27040) | -0.65
TPM4 (GeneID 7171) | -0.64
TPM4 (GeneID 7171) | -0.67
TPM4 (GeneID 7171) | -0.52
TPM4 (GeneID 7171) | -0.42
OTUD7B (GeneID 56957) | -1.81 (active)
OTUD7B (GeneID 56957) | -2.14 (active)
OTUD7B (GeneID 56957) | -1.38
OTUD7B (GeneID 56957) | 0.99
KBTBD7 (GeneID 84078) | -0.97
KBTBD7 (GeneID 84078) | -0.85
KBTBD7 (GeneID 84078) | -0.82
KBTBD7 (GeneID 84078) | -0.83
C3orf52 (GeneID 79669) | 0.22
C3orf52 (GeneID 79669) | 0.02
C3orf52 (GeneID 79669) | -0.56
C3orf52 (GeneID 79669) | -0.94
THADA (GeneID 63892) | 0.64
THADA (GeneID 63892) | 0.84
THADA (GeneID 63892) | 0.24
THADA (GeneID 63892) | -1.1
GJB5 (GeneID 2709) | -1.38
GJB5 (GeneID 2709) | -0.51
GJB5 (GeneID 2709) | -2.01 (active)
GJB5 (GeneID 2709) | -1

Next part, starting with the last 5 of the part before.
gene symbol | TNF reporter robust z-score
THADA (GeneID 63892) | -1.1
GJB5 (GeneID 2709) | -1.38
GJB5 (GeneID 2709) | -0.51
GJB5 (GeneID 2709) | -2.01 (active)
GJB5 (GeneID 2709) | -1
IFT25 (GeneID 51668) | -0.5
IFT25 (GeneID 51668) | 0.17
IFT25 (GeneID 51668) | 0.27
IFT25 (GeneID 51668) | 1.34
PARD6A (GeneID 50855) | -1.04
PARD6A (GeneID 50855) | -0.51
PARD6A (GeneID 50855) | -0.73
PARD6A (GeneID 50855) | 0.05
PIP4K2A (GeneID 5305) | 0.38
PIP4K2A (GeneID 5305) | 0.54
PIP4K2A (GeneID 5305) | 0.46
PIP4K2A (GeneID 5305) | 0.07
KIF17 (GeneID 57576) | 1.67
KIF17 (GeneID 57576) | 3.68 (active)
KIF17 (GeneID 57576) | 2.59
KIF17 (GeneID 57576) | 2.79
PODNL1 (GeneID 79883) | -1
PODNL1 (GeneID 79883) | 0.69
PODNL1 (GeneID 79883) | 0.93
PODNL1 (GeneID 79883) | 0.76
NSUN3 (GeneID 63899) | -1.85 (active)
NSUN3 (GeneID 63899) | -1.49
NSUN3 (GeneID 63899) | -0.94
NSUN3 (GeneID 63899) | -0.89
DRAM1 (GeneID 55332) | -0.51
DRAM1 (GeneID 55332) | -1.38
DRAM1 (GeneID 55332) | -1.44
DRAM1 (GeneID 55332) | -1.36
FAM133A (GeneID 286499) | -0.52
FAM133A (GeneID 286499) | -0.74
FAM133A (GeneID 286499) | 0.16
FAM133A (GeneID 286499) | 0.62
DNAH7 (GeneID 56171) | 0.13
DNAH7 (GeneID 56171) | 0.01
DNAH7 (GeneID 56171) | 0.81
DNAH7 (GeneID 56171) | -0.29
LIMD1 (GeneID 8994) | 0.79
LIMD1 (GeneID 8994) | 1.55
LIMD1 (GeneID 8994) | -0.58
LIMD1 (GeneID 8994) | 1.67
SPACA7 (GeneID 122258) | 0.14
SPACA7 (GeneID 122258) | -0.04
SPACA7 (GeneID 122258) | 0.01
SPACA7 (GeneID 122258) | 0.99
GALK1 (GeneID 2584) | -1.38
GALK1 (GeneID 2584) | -0.92
GALK1 (GeneID 2584) | -1.17
GALK1 (GeneID 2584) | -1.53 (active)
SPESP1 (GeneID 246777) | 4.27 (active)
SPESP1 (GeneID 246777) | 3.15 (active)
SPESP1 (GeneID 246777) | 0.23
SPESP1 (GeneID 246777) | -0.17
ELF1 (GeneID 1997) | -0.7
ELF1 (GeneID 1997) | -0.11
ELF1 (GeneID 1997) | -1.05
ELF1 (GeneID 1997) | 0.56
TM4SF5 (GeneID 9032) | -0.58
TM4SF5 (GeneID 9032) | -0.3
TM4SF5 (GeneID 9032) | -0.49
TM4SF5 (GeneID 9032) | -0.88
HAP1 (GeneID 9001) | 0.86
HAP1 (GeneID 9001) | 0.51
HAP1 (GeneID 9001) | 0.72
HAP1 (GeneID 9001) | 0.41
RCCD1 (GeneID 91433) | 0.17
RCCD1 (GeneID 91433) | 1.07
RCCD1 (GeneID 91433) | -0.54
RCCD1 (GeneID 91433) | -0.16
